Measurements reported in paper PMC8072890 (Pharmaceuticals, 2021).

Experiment: general procedure: peptide synthesis; PyBOP/DIPEA
Details: late stage modification step

Eremomycin N-(2-((3,5-difluorobenzyl)amino)ethyl)amide
step yield: 49%
final HPLC purity (260 nm): 95.3%

Eremomycin N-(2-(benzylamino)ethyl)amide
step yield: 47%
final HPLC purity (260 nm): 96.9%

Eremomycin N-(2-((3-fluorobenzyl)amino)ethyl)amide
step yield: 52%
final HPLC purity (260 nm): 96.4%

Eremomycin N-(2-((2,6-difluorobenzyl)amino)ethyl)amide
step yield: 48%
final HPLC purity (260 nm): 95.4%

Eremomycin N-(2-((2-fluorobenzyl)amino)propyl)amide
step yield: 58%
final HPLC purity (260 nm): 98.1%

Eremomycin N-(2-((2,4-dichlorobenzyl)amino)ethyl)amide
step yield: 61%
final HPLC purity (260 nm): 97.1%

Eremomycin N-(2-((4-chlorobenzyl)amino)ethyl)amide
step yield: 50%
final HPLC purity (260 nm): 95.6%

Eremomycin N-(2-((3,4-dichlorobenzyl)amino)ethyl)amide
step yield: 48%
final HPLC purity (260 nm): 95.7%

Eremomycin N-(2-((4-methylbenzyl)amino)ethyl)amide
step yield: 44%
final HPLC purity (260 nm): 96.7%

Eremomycin N-(2-((4-methoxybenzyl)amino)ethyl)amide
step yield: 60%
final HPLC purity (260 nm): 97.2%

Eremomycin N-(2-((2-fluorobenzyl)amino)ethyl)amide
step yield: 54%
final HPLC purity (260 nm): 97.6%

Eremomycin N-(2-((4-fluorobenzyl)amino)ethyl)amide
step yield: 57%
final HPLC purity (270 nm): 96.7%

Eremomycin N-(2-phenethylamino)ethyl)amide
step yield: 48%
final HPLC purity (260 nm): 95.4%

Eremomycin N-(2-((2-chloro-4-fluorobenzyl)amino)ethyl)amide
step yield: 45%
final HPLC purity (260 nm): 97.3%

Eremomycin N-(2-((4-trifluoromethylbenzyl)amino)ethyl)amide
step yield: 52%
final HPLC purity (260 nm): 95.2%

Eremomycin N-(2-((2,3,4,5,6-pentafluorobenzyl)amino)ethyl)amide
step yield: 63%
final HPLC purity (260 nm): 96.6%
